{
  "sequences": {"note": "Chains of the proteins cited; added tags and fusions are not shown. Lines headed by an entry give the natural chain unless they say otherwise; changes in a name come on top.", "UniProt Q9H074": "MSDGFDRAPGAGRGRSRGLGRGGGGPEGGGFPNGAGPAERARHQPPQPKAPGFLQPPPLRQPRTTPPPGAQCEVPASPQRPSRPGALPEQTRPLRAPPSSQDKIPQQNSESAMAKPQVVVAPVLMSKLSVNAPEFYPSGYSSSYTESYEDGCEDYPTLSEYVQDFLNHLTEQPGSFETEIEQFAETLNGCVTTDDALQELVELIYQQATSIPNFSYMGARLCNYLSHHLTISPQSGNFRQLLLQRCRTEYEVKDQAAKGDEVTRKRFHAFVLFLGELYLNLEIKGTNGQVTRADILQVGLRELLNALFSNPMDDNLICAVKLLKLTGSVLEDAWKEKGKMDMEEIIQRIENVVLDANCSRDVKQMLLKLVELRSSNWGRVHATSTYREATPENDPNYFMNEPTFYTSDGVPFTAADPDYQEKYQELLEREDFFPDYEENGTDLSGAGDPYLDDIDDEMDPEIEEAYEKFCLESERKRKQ", "UniProt P11940, whole entry, looked up": "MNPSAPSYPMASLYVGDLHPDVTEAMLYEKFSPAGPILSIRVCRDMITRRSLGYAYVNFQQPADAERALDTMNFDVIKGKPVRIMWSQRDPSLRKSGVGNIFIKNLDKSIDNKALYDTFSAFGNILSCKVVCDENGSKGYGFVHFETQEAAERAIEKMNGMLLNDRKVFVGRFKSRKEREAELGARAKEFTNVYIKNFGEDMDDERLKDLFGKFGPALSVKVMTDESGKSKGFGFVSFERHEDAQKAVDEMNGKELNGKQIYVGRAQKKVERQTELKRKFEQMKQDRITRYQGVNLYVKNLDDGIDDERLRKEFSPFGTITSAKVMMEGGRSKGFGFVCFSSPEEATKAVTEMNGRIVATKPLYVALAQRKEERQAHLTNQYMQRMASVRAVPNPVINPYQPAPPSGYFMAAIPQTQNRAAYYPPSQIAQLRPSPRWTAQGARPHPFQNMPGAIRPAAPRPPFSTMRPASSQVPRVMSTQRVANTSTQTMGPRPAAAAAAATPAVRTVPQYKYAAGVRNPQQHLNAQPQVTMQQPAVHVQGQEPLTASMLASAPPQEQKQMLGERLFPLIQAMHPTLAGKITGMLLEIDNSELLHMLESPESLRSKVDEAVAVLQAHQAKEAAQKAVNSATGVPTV", "UniProt P22234": "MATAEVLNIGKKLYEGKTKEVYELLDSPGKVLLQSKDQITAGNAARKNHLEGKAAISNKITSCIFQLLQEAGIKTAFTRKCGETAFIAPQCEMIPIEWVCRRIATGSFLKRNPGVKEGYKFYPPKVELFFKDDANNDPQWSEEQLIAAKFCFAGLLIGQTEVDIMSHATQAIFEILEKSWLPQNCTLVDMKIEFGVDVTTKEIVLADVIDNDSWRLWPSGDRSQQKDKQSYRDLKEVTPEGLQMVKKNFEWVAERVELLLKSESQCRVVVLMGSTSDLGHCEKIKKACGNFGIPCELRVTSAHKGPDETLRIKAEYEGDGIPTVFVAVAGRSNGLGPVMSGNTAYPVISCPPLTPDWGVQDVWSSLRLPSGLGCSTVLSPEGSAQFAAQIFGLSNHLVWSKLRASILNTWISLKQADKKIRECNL", "UniProt Q9BPZ3": "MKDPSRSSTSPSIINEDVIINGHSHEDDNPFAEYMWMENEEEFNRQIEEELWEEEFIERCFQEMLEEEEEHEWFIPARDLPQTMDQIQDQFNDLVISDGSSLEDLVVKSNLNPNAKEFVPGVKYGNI", "UniProt O43913": "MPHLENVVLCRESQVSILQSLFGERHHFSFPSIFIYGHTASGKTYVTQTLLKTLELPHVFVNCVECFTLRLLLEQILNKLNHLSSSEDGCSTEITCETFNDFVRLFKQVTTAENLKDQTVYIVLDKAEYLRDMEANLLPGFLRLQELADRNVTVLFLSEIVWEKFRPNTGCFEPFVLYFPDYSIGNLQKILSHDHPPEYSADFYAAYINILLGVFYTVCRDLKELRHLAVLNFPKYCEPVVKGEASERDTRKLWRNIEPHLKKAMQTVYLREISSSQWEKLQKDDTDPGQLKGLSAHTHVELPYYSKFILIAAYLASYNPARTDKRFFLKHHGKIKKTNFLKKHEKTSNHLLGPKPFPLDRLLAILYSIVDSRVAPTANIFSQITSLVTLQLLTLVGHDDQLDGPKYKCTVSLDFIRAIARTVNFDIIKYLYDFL", "UniProt Q9NVE7": "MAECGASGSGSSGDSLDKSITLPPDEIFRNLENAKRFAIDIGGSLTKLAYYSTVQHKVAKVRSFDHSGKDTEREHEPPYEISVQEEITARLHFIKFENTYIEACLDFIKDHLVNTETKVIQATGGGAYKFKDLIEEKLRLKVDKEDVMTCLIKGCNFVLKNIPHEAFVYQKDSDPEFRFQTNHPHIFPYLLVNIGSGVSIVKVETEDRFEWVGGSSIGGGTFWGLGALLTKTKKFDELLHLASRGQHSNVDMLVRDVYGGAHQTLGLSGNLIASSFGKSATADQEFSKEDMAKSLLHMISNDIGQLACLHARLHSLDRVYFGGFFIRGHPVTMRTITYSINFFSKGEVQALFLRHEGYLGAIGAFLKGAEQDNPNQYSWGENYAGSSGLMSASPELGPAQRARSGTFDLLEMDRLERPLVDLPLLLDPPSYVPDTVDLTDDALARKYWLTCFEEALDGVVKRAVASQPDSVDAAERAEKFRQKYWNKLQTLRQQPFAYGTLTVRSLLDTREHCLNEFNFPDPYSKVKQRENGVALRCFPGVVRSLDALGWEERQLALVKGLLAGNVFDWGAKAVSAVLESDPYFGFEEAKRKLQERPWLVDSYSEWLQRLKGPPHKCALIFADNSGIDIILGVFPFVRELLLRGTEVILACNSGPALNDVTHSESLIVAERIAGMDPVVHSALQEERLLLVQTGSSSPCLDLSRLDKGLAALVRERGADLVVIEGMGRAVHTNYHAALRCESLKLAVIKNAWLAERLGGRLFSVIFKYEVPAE", "UniProt Q92882": "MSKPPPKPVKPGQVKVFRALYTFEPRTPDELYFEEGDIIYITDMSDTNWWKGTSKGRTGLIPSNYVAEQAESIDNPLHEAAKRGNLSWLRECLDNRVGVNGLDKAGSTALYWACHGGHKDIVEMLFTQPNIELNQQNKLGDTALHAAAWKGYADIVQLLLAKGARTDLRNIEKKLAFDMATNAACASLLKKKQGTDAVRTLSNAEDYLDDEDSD", "UniProt Q96BN8, whole entry, looked up": "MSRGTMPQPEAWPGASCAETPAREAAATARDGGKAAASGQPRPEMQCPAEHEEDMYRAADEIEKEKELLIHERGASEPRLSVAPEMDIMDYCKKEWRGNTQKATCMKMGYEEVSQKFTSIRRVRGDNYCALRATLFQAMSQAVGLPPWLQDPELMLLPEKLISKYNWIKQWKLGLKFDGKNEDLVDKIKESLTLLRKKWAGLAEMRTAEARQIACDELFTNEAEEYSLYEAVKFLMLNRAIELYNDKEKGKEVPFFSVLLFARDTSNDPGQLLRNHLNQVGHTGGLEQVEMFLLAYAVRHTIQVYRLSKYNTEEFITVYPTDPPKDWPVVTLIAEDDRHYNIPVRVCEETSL", "UniProt Q9UBD5": "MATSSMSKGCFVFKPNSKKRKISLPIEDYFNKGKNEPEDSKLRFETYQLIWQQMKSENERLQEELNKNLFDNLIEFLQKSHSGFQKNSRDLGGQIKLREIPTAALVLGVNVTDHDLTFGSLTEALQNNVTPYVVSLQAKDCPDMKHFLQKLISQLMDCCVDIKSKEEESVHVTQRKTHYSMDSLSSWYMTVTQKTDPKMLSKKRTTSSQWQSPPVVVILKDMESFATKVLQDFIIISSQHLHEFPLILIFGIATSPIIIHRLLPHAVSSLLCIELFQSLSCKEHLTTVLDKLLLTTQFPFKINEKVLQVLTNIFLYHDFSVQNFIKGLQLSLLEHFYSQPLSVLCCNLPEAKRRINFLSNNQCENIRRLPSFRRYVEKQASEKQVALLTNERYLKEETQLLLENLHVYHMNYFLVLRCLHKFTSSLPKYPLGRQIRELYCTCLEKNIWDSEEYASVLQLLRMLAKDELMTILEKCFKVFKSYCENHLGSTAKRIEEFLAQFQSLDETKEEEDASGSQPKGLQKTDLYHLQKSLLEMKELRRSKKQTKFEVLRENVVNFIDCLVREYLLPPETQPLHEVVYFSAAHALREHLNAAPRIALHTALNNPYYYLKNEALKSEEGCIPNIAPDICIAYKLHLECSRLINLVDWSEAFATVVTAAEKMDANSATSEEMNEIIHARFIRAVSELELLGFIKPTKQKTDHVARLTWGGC", "UniProt O95453": "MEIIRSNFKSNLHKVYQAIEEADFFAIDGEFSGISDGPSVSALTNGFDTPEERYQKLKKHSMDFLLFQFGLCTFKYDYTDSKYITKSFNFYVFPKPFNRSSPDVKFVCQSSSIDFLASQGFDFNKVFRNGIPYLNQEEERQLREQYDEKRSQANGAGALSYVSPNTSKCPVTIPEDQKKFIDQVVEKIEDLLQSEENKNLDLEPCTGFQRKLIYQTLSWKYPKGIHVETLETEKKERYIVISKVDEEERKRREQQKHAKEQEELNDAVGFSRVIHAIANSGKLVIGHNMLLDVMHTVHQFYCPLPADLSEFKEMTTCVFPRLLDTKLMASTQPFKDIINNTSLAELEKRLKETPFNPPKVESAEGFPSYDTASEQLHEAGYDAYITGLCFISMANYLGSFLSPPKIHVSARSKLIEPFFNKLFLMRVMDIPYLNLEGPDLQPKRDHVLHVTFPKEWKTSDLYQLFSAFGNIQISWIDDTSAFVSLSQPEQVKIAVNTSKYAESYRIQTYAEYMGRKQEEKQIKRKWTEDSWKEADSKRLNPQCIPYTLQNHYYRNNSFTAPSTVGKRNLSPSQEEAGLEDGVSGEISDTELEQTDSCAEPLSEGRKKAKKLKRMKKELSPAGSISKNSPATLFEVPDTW", "UniProt P51003": "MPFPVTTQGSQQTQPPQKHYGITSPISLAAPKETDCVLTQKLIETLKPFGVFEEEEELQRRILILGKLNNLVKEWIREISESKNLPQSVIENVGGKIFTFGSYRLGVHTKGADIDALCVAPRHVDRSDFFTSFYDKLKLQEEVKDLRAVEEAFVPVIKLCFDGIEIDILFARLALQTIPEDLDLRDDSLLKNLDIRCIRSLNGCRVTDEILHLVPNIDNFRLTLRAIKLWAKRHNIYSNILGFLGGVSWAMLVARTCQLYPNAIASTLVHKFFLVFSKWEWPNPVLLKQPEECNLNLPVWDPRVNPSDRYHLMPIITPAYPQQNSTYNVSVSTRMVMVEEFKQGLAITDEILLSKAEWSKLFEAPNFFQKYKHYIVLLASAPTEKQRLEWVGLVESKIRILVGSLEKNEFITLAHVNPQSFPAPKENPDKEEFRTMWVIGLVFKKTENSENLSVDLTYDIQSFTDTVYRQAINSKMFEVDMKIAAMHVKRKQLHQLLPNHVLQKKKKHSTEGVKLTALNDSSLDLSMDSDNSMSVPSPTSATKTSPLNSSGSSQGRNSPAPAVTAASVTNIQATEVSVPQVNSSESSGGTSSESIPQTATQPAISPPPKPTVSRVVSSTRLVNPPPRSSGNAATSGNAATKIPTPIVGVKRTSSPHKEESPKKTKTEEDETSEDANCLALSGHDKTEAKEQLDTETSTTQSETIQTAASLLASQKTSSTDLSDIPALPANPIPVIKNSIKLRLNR", "UniProt O95340": "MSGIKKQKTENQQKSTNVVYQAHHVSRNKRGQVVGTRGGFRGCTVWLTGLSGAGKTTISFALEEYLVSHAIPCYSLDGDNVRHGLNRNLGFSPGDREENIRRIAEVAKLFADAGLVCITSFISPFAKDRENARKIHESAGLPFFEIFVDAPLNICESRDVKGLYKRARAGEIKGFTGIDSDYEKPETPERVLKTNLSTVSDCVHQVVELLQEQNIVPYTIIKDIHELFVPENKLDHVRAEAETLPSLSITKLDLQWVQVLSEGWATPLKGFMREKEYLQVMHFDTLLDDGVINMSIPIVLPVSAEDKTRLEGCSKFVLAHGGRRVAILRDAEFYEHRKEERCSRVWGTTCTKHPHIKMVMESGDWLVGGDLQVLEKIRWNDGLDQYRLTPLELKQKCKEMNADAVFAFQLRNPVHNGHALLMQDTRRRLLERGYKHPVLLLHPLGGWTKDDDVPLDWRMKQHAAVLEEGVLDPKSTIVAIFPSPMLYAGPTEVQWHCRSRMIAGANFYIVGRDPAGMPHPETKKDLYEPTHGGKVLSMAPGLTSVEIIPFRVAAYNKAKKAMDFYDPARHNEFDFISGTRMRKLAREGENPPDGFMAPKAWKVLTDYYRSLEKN", "UniProt Q9NPF4": "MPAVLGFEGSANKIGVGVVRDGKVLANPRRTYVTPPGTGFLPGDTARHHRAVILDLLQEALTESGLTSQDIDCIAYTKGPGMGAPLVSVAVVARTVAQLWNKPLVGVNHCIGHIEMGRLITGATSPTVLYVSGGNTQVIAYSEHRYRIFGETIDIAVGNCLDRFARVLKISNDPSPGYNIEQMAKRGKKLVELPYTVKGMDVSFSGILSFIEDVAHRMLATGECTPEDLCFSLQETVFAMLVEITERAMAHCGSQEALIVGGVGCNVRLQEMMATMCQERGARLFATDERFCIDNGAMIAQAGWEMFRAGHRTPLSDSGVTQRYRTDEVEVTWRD"},
  "source": "the supplement of paper PMC12067093",
  "about": "“Discovery and optimisation of a covalent ligand for TRIM25 and its application to targeted protein ubiquitination” (Chemical Science, 2025)",
  "note": "This is one part of the list.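 Note: competitive chemoproteomic profiling in live THP-1 cells with an iodoacetamide desthiobiotin (IA-DTB) probe, comparing probe-labelled peptide intensities in compound-treated cells against DMSO-treated controls.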",
  "data": [
    {"compound": "CC1Cc2ccccc2N1C(=O)C1CCCN(C1)C(=O)CCl (mixture of isomers) [TRIM25 ligand 11 (diastereomer mixture)]", "test": "probe-labelled cysteine peptide fold change vs DMSO (competition) (log2 fold change); higher = less target engagement (more negative = stronger competition)", "details": "10 µM; THP-1; incubation time: 4 h", "values": [
      {"target": "PAIP1_Q9H074_358_GKMDMEEIIQRIENVVLDANCSR (UniProt Q9H074)", "probe-labelled cysteine peptide fold change": -0.379},
      {"target": "OSBPL1A_Q9BXW6_746_CVLNFKPCGLFGK (UniProt Q9BXW6)", "probe-labelled cysteine peptide fold change": 0.0146},
      {"target": "P3H1_Q32P28_670_CAIALWFTLDPR (UniProt Q32P28)", "probe-labelled cysteine peptide fold change": -0.273},
      {"target": "PABPC1_P11940_132_VVCDENGSK (UniProt P11940)", "probe-labelled cysteine peptide fold change": 0.0624},
      {"target": "PAICS_P22234_266_SESQCR (UniProt P22234)", "probe-labelled cysteine peptide fold change": 1.85},
      {"target": "PAIP2_Q9BPZ3_60_CFQEMLEEEEEHEWFIPAR (UniProt Q9BPZ3)", "probe-labelled cysteine peptide fold change": -0.237},
      {"target": "OSBPL9_Q96SU4_577_SILTVPWVELGGECNINCSK (UniProt Q96SU4)", "probe-labelled cysteine peptide fold change": 0.311},
      {"target": "ORC5_O43913_409_CTVSLDFIR (UniProt O43913)", "probe-labelled cysteine peptide fold change": 0.0546},
      {"target": "PAICS_P22234_81_CGETAFIAPQCEMIPIEWVCR (UniProt P22234)", "probe-labelled cysteine peptide fold change": -0.127},
      {"target": "PANK4_Q9NVE7_308_SLLHMISNDIGQLACLHAR (UniProt Q9NVE7)", "probe-labelled cysteine peptide fold change": 0.049},
      {"target": "PAFAH1B1_P43034_281_EHEHVVECISWAPESSYSSISEATGSETKK (UniProt P43034)", "probe-labelled cysteine peptide fold change": 0.0377},
      {"target": "OSTF1_Q92882_114_AGSTALYWACHGGHK (UniProt Q92882)", "probe-labelled cysteine peptide fold change": -0.0184},
      {"target": "OSBP_P22059_803_QDWSSCPDIF (UniProt P22059)", "probe-labelled cysteine peptide fold change": -0.00389},
      {"target": "OTULIN_Q96BN8_47_AAASGQPRPEMQCPAEHEEDMYR (UniProt Q96BN8)", "probe-labelled cysteine peptide fold change": -0.0284},
      {"target": "PAFAH1B1_P43034_281_EHEHVVECISWAPESSYSSISEATGSETK (UniProt P43034)", "probe-labelled cysteine peptide fold change": -0.156},
      {"target": "OTULINL_Q9NUU6_226_GSMCNTLFSDAILEYK (UniProt Q9NUU6)", "probe-labelled cysteine peptide fold change": 0.286},
      {"target": "PAG1_Q9NWQ8_355_SPSSCNDLYATVK (UniProt Q9NWQ8)", "probe-labelled cysteine peptide fold change": -0.0441},
      {"target": "PAICS_P22234_91_CGETAFIAPQCEMIPIEWVCR (UniProt P22234)", "probe-labelled cysteine peptide fold change": 0.291},
      {"target": "ORC3_Q9UBD5_639_LHLECSR (UniProt Q9UBD5)", "probe-labelled cysteine peptide fold change": 0.0425},
      {"target": "ORC3_Q9UBD5_363_INFLSNNQCENIR (UniProt Q9UBD5)", "probe-labelled cysteine peptide fold change": -0.0956},
      {"target": "OSBPL1A_Q9BXW6_56_SNLGWTPLHLACYFGHR (UniProt Q9BXW6)", "probe-labelled cysteine peptide fold change": -0.158},
      {"target": "PALD1_Q9ULE6_65_VAPVVITYNCK (UniProt Q9ULE6)", "probe-labelled cysteine peptide fold change": 0.0634},
      {"target": "PAFAH2_Q99487_147_SAATTYFCK (UniProt Q99487)", "probe-labelled cysteine peptide fold change": -0.0137},
      {"target": "PARK7_Q99497_53_DVVICPDASLEDAK (UniProt Q99497)", "probe-labelled cysteine peptide fold change": -0.00443},
      {"target": "PARN_O95453_543_LNPQCIPYTLQNHYYR (UniProt O95453)", "probe-labelled cysteine peptide fold change": 0.0426},
      {"target": "PA2G4_Q9UQ80_149_AAHLCAEAALR (UniProt Q9UQ80)", "probe-labelled cysteine peptide fold change": 0.0157},
      {"target": "PAPOLA_P51003_293_QPEECNLNLPVWDPR (UniProt P51003)", "probe-labelled cysteine peptide fold change": 0.0633},
      {"target": "ORC3_Q9UBD5_10_GCFVFKPNSK (UniProt Q9UBD5)", "probe-labelled cysteine peptide fold change": -0.0669},
      {"target": "ORC3_Q9UBD5_141_DCPDMK (UniProt Q9UBD5)", "probe-labelled cysteine peptide fold change": 0.0222},
      {"target": "PAPSS2_O95340_350_VWGTTCTK (UniProt O95340)", "probe-labelled cysteine peptide fold change": -0.00431},
      {"target": "OSTF1_Q92882_185_KLAFDMATNAACASLLK (UniProt Q92882)", "probe-labelled cysteine peptide fold change": -0.203},
      {"target": "OSGEP_Q9NPF4_160_IFGETIDIAVGNCLDR (UniProt Q9NPF4)", "probe-labelled cysteine peptide fold change": 0.0104},
      {"target": "PARP14_Q460N5_509_VTQHLCLK (UniProt Q460N5)", "probe-labelled cysteine peptide fold change": 0.118},
      {"target": "PANK4_Q9NVE7_651_GTEVILACNSGPALNDVTHSESLIVAER (UniProt Q9NVE7)", "probe-labelled cysteine peptide fold change": -0.192},
      {"target": "PALD1_Q9ULE6_555_EEAVLECDGHTYSLR (UniProt Q9ULE6)", "probe-labelled cysteine peptide fold change": 0.165},
      {"target": "OSBPL1A_Q9BXW6_340_EDWLEAIEEHSAYSTHYCSQDQLTDEEEEDTVSAADLKK (UniProt Q9BXW6)", "probe-labelled cysteine peptide fold change": 0.199}
    ]},
    {"compound": "CC1Cc2ccccc2N1C(=O)C1CCCN(C1)C(=O)CCl (mixture of isomers) [TRIM25 ligand 11 (diastereomer mixture)]", "test": "probe-labelled cysteine peptide fold change vs DMSO (competition) (log2 fold change); higher = less target engagement (more negative = stronger competition)", "details": "50 µM; THP-1; incubation time: 4 h", "values": [
      {"target": "PAIP1_Q9H074_358_GKMDMEEIIQRIENVVLDANCSR (UniProt Q9H074)", "probe-labelled cysteine peptide fold change": -0.259},
      {"target": "OSBPL1A_Q9BXW6_746_CVLNFKPCGLFGK (UniProt Q9BXW6)", "probe-labelled cysteine peptide fold change": -0.0146},
      {"target": "P3H1_Q32P28_670_CAIALWFTLDPR (UniProt Q32P28)", "probe-labelled cysteine peptide fold change": -0.233},
      {"target": "PABPC1_P11940_132_VVCDENGSK (UniProt P11940)", "probe-labelled cysteine peptide fold change": 0.0803},
      {"target": "PAICS_P22234_266_SESQCR (UniProt P22234)", "probe-labelled cysteine peptide fold change": 1.12},
      {"target": "PAIP2_Q9BPZ3_60_CFQEMLEEEEEHEWFIPAR (UniProt Q9BPZ3)", "probe-labelled cysteine peptide fold change": -0.327},
      {"target": "OSBPL9_Q96SU4_577_SILTVPWVELGGECNINCSK (UniProt Q96SU4)", "probe-labelled cysteine peptide fold change": 0.198},
      {"target": "ORC5_O43913_409_CTVSLDFIR (UniProt O43913)", "probe-labelled cysteine peptide fold change": 0.141},
      {"target": "PAICS_P22234_81_CGETAFIAPQCEMIPIEWVCR (UniProt P22234)", "probe-labelled cysteine peptide fold change": -0.13},
      {"target": "PANK4_Q9NVE7_308_SLLHMISNDIGQLACLHAR (UniProt Q9NVE7)", "probe-labelled cysteine peptide fold change": 0.0263},
      {"target": "PAFAH1B1_P43034_281_EHEHVVECISWAPESSYSSISEATGSETKK (UniProt P43034)", "probe-labelled cysteine peptide fold change": 0.0146},
      {"target": "OSTF1_Q92882_114_AGSTALYWACHGGHK (UniProt Q92882)", "probe-labelled cysteine peptide fold change": 0.00467},
      {"target": "OSBP_P22059_803_QDWSSCPDIF (UniProt P22059)", "probe-labelled cysteine peptide fold change": -0.206},
      {"target": "OTULIN_Q96BN8_47_AAASGQPRPEMQCPAEHEEDMYR (UniProt Q96BN8)", "probe-labelled cysteine peptide fold change": -0.303},
      {"target": "PAFAH1B1_P43034_281_EHEHVVECISWAPESSYSSISEATGSETK (UniProt P43034)", "probe-labelled cysteine peptide fold change": 0.158},
      {"target": "OTULINL_Q9NUU6_226_GSMCNTLFSDAILEYK (UniProt Q9NUU6)", "probe-labelled cysteine peptide fold change": 0.152},
      {"target": "PAG1_Q9NWQ8_355_SPSSCNDLYATVK (UniProt Q9NWQ8)", "probe-labelled cysteine peptide fold change": -0.297},
      {"target": "PAICS_P22234_91_CGETAFIAPQCEMIPIEWVCR (UniProt P22234)", "probe-labelled cysteine peptide fold change": 0.222},
      {"target": "ORC3_Q9UBD5_639_LHLECSR (UniProt Q9UBD5)", "probe-labelled cysteine peptide fold change": 0.148},
      {"target": "ORC3_Q9UBD5_363_INFLSNNQCENIR (UniProt Q9UBD5)", "probe-labelled cysteine peptide fold change": -0.106},
      {"target": "OSBPL1A_Q9BXW6_56_SNLGWTPLHLACYFGHR (UniProt Q9BXW6)", "probe-labelled cysteine peptide fold change": 0.106},
      {"target": "PALD1_Q9ULE6_65_VAPVVITYNCK (UniProt Q9ULE6)", "probe-labelled cysteine peptide fold change": 0.16},
      {"target": "PAFAH2_Q99487_147_SAATTYFCK (UniProt Q99487)", "probe-labelled cysteine peptide fold change": -0.0335},
      {"target": "PARK7_Q99497_53_DVVICPDASLEDAK (UniProt Q99497)", "probe-labelled cysteine peptide fold change": -0.264},
      {"target": "PARN_O95453_543_LNPQCIPYTLQNHYYR (UniProt O95453)", "probe-labelled cysteine peptide fold change": -0.0659},
      {"target": "PA2G4_Q9UQ80_149_AAHLCAEAALR (UniProt Q9UQ80)", "probe-labelled cysteine peptide fold change": 0.115},
      {"target": "PAPOLA_P51003_293_QPEECNLNLPVWDPR (UniProt P51003)", "probe-labelled cysteine peptide fold change": 0.0321},
      {"target": "ORC3_Q9UBD5_10_GCFVFKPNSK (UniProt Q9UBD5)", "probe-labelled cysteine peptide fold change": -0.197},
      {"target": "ORC3_Q9UBD5_141_DCPDMK (UniProt Q9UBD5)", "probe-labelled cysteine peptide fold change": 0.0344},
      {"target": "PAPSS2_O95340_350_VWGTTCTK (UniProt O95340)", "probe-labelled cysteine peptide fold change": -0.0362},
      {"target": "OSTF1_Q92882_185_KLAFDMATNAACASLLK (UniProt Q92882)", "probe-labelled cysteine peptide fold change": -0.151},
      {"target": "OSGEP_Q9NPF4_160_IFGETIDIAVGNCLDR (UniProt Q9NPF4)", "probe-labelled cysteine peptide fold change": -0.0314},
      {"target": "PARP14_Q460N5_509_VTQHLCLK (UniProt Q460N5)", "probe-labelled cysteine peptide fold change": 0.182},
      {"target": "PANK4_Q9NVE7_651_GTEVILACNSGPALNDVTHSESLIVAER (UniProt Q9NVE7)", "probe-labelled cysteine peptide fold change": -0.17},
      {"target": "PALD1_Q9ULE6_555_EEAVLECDGHTYSLR (UniProt Q9ULE6)", "probe-labelled cysteine peptide fold change": 0.167},
      {"target": "OSBPL1A_Q9BXW6_340_EDWLEAIEEHSAYSTHYCSQDQLTDEEEEDTVSAADLKK (UniProt Q9BXW6)", "probe-labelled cysteine peptide fold change": -0.153}
    ]}
  ]
}
